Source: patent publication US8445440B2, “Dimeric IAP inhibitors” (Novartis AG, priority 2010, dated 2013)
The structures given here were assigned with low confidence; some may be wrong.

The chains behind the UniProt entries cited, without tags or fusion partners. Residues count along the entry.
UniProt P98170, 241-356 limits assumed: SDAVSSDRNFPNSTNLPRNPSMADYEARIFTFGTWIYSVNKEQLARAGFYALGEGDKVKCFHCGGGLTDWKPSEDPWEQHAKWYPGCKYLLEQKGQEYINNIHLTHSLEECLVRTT
UniProt Q13490, 260-352 limits assumed: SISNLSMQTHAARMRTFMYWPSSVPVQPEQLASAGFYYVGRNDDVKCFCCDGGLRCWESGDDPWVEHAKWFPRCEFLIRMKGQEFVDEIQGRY

Key:
XIAP-BIR3 = XIAP-BIR3 (Homo sapiens, UniProt P98170); assay: Biacore SPR solution competition binding assay vs smac7 mer peptide, XIAP-BIR3; details: read-out: XIAP-BIR3 Binding Biacore (Competitive) EC50, citrate salt form tested, 100 nM XIAP-BIR3, 25° C.
Text: (§1) The compounds described herein above were profiled using a cellular assay (using SKOV3 or Panc3.27 tumor cells) and a binding assay to determine the competition between the compounds of the present invention and smac7 mer peptide for XIAP-BIR3 and cIAP1-BIR3 binding groove occupancy.
(§2) The present method includes utility of a Surface plasmon resonance (SPR)-based biosensor (Biacore™ GE Healthcare, Uppsala, Sweden) to examine competition between the compounds of the present invention and smac7 mer peptide for XIAP-BIR3 and cIAP1-BIR3 binding groove occupancy.
(§3) Biacore™ utilizes the phenomenon of surface plasmon resonance (SPR) to detect and measure binding interactions. […] Changes in refractive index or signal are recorded in resonance units (R.U.) Signal changes due to association and dissociation of complexes are monitored in a non-invasive manner, continuously and in real-time, the results of which are reported in the form of a sensorgram. […]
(§4) Data analyses were carried out using Biacore™ T100 evaluation software v2.0 to validate assay quality. Binding level report points were plotted versus logarithmic compound concentration values and analyzed in Graphpad prism 5 via non-linear regression using a one-site competition model. […]

Panc3.27 tumor cells = assay: Cellular assay, Panc3.27 tumor cell proliferation (Cell Titer Glo); details: read-out: PANC proliferation IC50, citrate salt form tested, Panc3.27 cells, 72 hour growth
Experimental: as §1
(§5) On day one adherent SKOV3 and Panc3.27 cells are plated into two 96-well, clear, flat bottom plates. All wells in row A contain 90 uL of media. All wells in rows B-G contain a total volume of 90 uL per well and 2000 cells per well for SKOV3 and 4000 cells per well for Panc3.27 cell lines. Plates are then incubated overnight for 18 hours at 37° C., 5% CO2. […]
(§6) To measure cell viability 50 uL of Cell Titer Glo (CTG) solution is added to row A, media only and B, cells and media. […] After incubating for ten minutes with CTG plates are measured on a luminescent reader at 700 nm wavelength. Read time is approximately one second per well for a 96-well plate.
(§7) On day five 50 uL of CTG is added to plate one, rows A-G, incubated for 10 minutes at room temperature and read on a luminescent reader. […] Triplicate values are averaged and percent control growth is calculated. Percent control growth is calculated using the following logical test: If well read data point (a) is greater than time zero data point (t=0), then 100*[(a)−(t=0)]/[(72 hour total growth)−(t=0)], OR 100*[(a)−(t=0)]/[(t=0)]. […]

cIAP1-BIR3 = cIAP1-BIR3 (Homo sapiens, UniProt Q13490); assay: Biacore SPR solution competition binding assay vs smac7 mer peptide, cIAP1-BIR3; details: read-out: CIAP-BIR3 Binding Biacore (Competitive) EC50, citrate salt form tested, 6 nM cIAP1-BIR3, 25° C.
Text: as §1, §2, §3, §4

SKOV3 tumor cells = assay: Cellular assay, SKOV3 tumor cell proliferation (Cell Titer Glo); details: read-out: SKOV3 proliferation IC50, citrate salt form tested, 72 hour growth
Experimental: as §1, §5, §6, §7

CN[C@@H](C)C(=O)N[C@@H](CCCCNS(=O)(=O)c1cccc(S(=O)(=O)NCCCC[C@H](NC(=O)[C@H](C)NC)C(=O)N2CCC[C@H]2c2cncc(C(=O)c3ccc(F)cc3)c2)c1)C(=O)N1CCC[C@H]1c1cncc(C(=O)c2ccc(F)cc2)c1
EC50 (XIAP-BIR3): 66.5 to 72.8 nM
IC50 (Panc3.27 tumor cells): 43.5 to 246 nM
EC50 (cIAP1-BIR3): 0.68 nM
IC50 (SKOV3 tumor cells): 81.1 to 83.8 nM
